This is an account of results in publication PMC6039025.

For this experiment, the target named is T1, Smc4-L1335A, 3xStrepTagII-tagged (S. cerevisiae) (UniProt Q12267).
T1 sequence: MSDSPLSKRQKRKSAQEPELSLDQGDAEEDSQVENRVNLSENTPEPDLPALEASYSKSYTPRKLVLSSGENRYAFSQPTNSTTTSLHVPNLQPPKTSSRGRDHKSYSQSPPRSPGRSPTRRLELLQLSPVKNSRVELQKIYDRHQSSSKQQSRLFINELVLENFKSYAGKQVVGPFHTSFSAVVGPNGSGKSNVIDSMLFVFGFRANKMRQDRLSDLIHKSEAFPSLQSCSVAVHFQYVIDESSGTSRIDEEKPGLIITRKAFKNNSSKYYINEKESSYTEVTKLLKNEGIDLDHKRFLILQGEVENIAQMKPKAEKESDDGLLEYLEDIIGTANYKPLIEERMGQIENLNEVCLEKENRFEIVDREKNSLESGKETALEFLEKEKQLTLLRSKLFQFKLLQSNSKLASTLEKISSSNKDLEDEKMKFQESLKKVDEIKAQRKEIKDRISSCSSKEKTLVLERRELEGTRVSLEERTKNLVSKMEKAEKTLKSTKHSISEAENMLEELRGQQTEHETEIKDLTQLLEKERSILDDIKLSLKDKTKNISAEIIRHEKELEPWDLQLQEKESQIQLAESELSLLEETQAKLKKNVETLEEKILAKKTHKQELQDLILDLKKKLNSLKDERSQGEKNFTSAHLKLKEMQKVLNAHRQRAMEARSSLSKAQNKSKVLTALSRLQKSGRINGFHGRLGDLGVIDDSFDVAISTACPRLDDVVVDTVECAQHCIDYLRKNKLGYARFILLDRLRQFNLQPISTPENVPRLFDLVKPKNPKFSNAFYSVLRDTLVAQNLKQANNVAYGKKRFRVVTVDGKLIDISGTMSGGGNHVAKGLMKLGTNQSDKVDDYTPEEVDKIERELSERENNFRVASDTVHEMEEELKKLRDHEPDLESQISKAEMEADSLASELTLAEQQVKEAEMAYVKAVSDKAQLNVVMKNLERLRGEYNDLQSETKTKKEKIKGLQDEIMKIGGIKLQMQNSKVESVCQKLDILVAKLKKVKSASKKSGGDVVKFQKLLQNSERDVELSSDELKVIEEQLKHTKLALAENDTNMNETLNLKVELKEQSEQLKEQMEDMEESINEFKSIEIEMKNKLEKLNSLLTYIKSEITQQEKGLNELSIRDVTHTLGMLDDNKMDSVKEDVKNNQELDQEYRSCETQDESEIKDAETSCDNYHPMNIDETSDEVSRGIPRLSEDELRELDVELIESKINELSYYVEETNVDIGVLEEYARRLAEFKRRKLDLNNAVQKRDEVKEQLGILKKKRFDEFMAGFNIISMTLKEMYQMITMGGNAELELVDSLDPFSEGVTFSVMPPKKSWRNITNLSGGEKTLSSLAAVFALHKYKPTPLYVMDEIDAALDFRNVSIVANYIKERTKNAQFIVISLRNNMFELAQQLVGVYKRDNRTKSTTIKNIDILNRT
Briefly: tandem affinity co-purification (Ni-NTA, Strep-Trap) + SEC; five condensin subunits co-overexpressed in yeast; extract in 500 mM NaCl, 10 mM Tris-HCl pH 8.0, 10% glycerol; Ni-NTA (His tags on Brn1 and Ycg1), then Strep-Trap HP (3xStrepTagII on Smc4), then Superose 6 10/300 in 200 mM NaCl, 50 mM Tris-HCl pH 8.0; subunits seen by SDS-PAGE and Coomassie staining.

These are yes or no findings as the source states them, for the method shown. Some binding calls cover weakened binding; strength is not graded here. Tags and fused reporters may be left off the sequences shown.

B1: Smc2 (protein, UniProt P38989 1-1170)
chain: MKVEELIIDGFKSYATRTVITDWDPQFNAITGLNGSGKSNILDAICFVLGIASMSTVRASSLQDLIYKRGQAGVTKASVTIVFDNTDKSNSPIGFTNSPQISVTRQVVLGGTSKYLINGHRAPQQSVLQLFQSVQLNINNPNFLIMQGKITKVLNMKPSEILSLIEEAAGTKMFEDRREKAERTMSKKETKLQENRTLLTEEIEPKLEKLRNEKRMFLEFQSTQTDLEKTERIVVSYEYYNIKHKHTSIRETLENGETRMKMLNEFVKKTSEEIDSLNEDVEEIKLQKEKELHKEGTISKLENKENGLLNEISRLKTSLSIKVENLNDTTEKSKALESEIASSSAKLIEKKSAYANTEKDYKMVQEQLSKQRDLYKRKEELVSTLTTGISSTGAADGGYNAQLAKAKTELNEVSLAIKKSSMKMELLKKELLTIEPKLKEATKDNELNVKHVKQCQETCDKLRARLVEYGFDPSRIKDLKQREDKLKSHYYQTCKNSEYLKRRVTNLEFNYTKPYPNFEASFVHGVVGQLFQIDNDNIRYATALQTCAGGRLFNVVVQDSQTATQLLERGRLRKRVTIIPLDKIYTRPISSQVLDLAKKIAPGKVELAINLIRFDESITKAMEFIFGNSLICEDPETAKKITFHPKIRARSITLQGDVYDPEGTLSGGSRNTSESLLVDIQKYNQIQKQIETIQADLNHVTEELQTQYATSQKTKTIQSDLNLSLHKLDLAKRNLDANPSSQIIARNEEILRDIGECENEIKTKQMSLKKCQEEVSTIEKDMKEYDSDKGSKLNELKKELKLLAKELEEQESESERKYDLFQNLELETEQLSSELDSNKTLLHNHLKSIESLKLENSDLEGKIRGVEDDLVTVQTELNEEKKRLMDIDDELNELETLIKKKQDEKKSSELELQKLVHDLNKYKSNTNNMEKIIEDLRQKHEFLEDFDLVRNIVKQNEGIDLDTYRERSKQLNEKFQELRKKVNPNIMNMIENVEKKEAALKTMIKTIEKDKMKIQETISKLNEYKRETLVKTWEKVTLDFGNIFADLLPNSFAKLVPCEGKDVTQGLEVKVKLGNIWKESLIELSGGQRSLIALSLIMALLQFRPAPMYILDEVDAALDLSHTQNIGHLIKTRFKGSQFIVVSLKEGMFANANRVFRTRFQDGTSVVSIM
As to B1, the binding entry is listed as “binds”.

B2: Ycs4 (protein, UniProt Q06156 1-1176)
chain: MSGFSLSEYLTKFQTTDRESYPRLQDPSRELNVIIDQLAVSPEQIDASPDSLEALIDLCHDFPHLTPKLQTQLSYLISSSLSNLSKDIKANLSSNVNFTEIGGLIPQWKRHLEEYGYLIQVLLTFLQDELHKVSSQSTNLNRSAKNSKNDSANVELFKRDCNQMENLLESITKLLEINLSKIFQTTPEKDLFIGLFTRPLFVLLEIEPVTKVSSLKMFIQRILAMCVKNHGQSSSIQSSLMTNLTYFLHLSVFNAELLKLLNDEYNYPQLTEDILKEISTRVFNAKDTTGPKAISNFLIKLSELSPGIMLRQMNLVITLLNNSSITLRCSVVEACGNIVAELAQDPQTMEHYKQQIAVLIELLEERFQDSNPYVRTKAIQGCSKICDLSSKFNKSKAKFTSLAVRSLQDRSSLVRRNSVKLLSKLLLKHPFKAIHGSQLRLSEWEEYLKGSESQLNSTLKKVESQETLNDTIERSLIEEEVEQDEGQCRTELEGSFNKSAELSRIENEVENINATNTSVLMKLKLMIVYYKDAISFIKEIHKSIELISNLLFSKNRNEVLESMDFLVLADAFDIELSEFGIKKMLHLVWMKGTNDEGTSISVHLIECYKQLFLTAPDSCNMQEKAAHIAKNLINLSIGASIADLASLEQLLGMMYEQKLIDQHVINILWAIYNSASKASMQKEQNVNNRDSEKGFSKEQIHGSIIILGMLSLADNEIALKGLESLLNIGLGAVGLKDLTLCRYSCLALERMVPKRSTIITKAINQELEDVAVKKLYAIIINYTKDNEYYPMCEQALSALFTISSKPDILATDLIREKTMMTFGKPEEEDSILSLEQSSRVVSLSQLLFIVGQVAIKTLVYLEKCEAEFKKRKIEAETRNGKVKNQGADVTNTTQDNGGDKELEMIGGTNEDDFTDAIQFVKENELLFGEKSILGKFCPIVEEIVSNSSRFSDPMLQRTATLCLEKLMCLSSKYCEKSLPLLITVMEKSPDPTIRSNAVLGLGDMAVCFNNLVDENTDYLYRRLHDENLMVQRTCLMTVTFLILAGQVKVKGQLGEMAKCLDNPDQGISDMCRLFFTELASKDNAIYNGFIDIFSNLSSDDLLGKESFKKIIKFLLTFIDKERHQKQLNEKLVGRLRKCETQKQWDDIAFVLNNLPYKNEDVTALLEQGFKVVSAKE
Consider B2, for which the binding entry was “binds”.

B3: Brn1-3xHA-12xHIS (protein, UniProt P38170 1-754)
chain: MTTQLRYENNDDDERVEYNLFTNRSTMMANFEEWIKMATDNKINSRNSWNFALIDYFYDLDVLKDGENNINFQKASATLDGCIKIYSSRVDSVTTETGKLLSGLAQRKTNGASNGDDSNGGNGEGLGGDSDEANIEIDPLTGMPISNDPDVNNTRRRVYNRVLETTLVEFETIKMKELDQELIIDPLFKKALVDFDEGGAKSLLLNTLNIDNTARVIFDASIKDTQNVGQGKLQRKEEELIERDSLVDDENEPSQSLISTRNDSTVNDSVISAPSMEDEILSLGMDFIKFDQIAVCEISGSIEQLRNVVEDINQAKDFIENVNNRFDNFLTEEELQAAVPDNAEDDSDGFDMGMQQELCYPDENHDNTSHDEQDDDNVNSTTGSIFEKDLMAYFDENLNRNWRGREHWKVRNFKKANLVNKESDLLEETRTTIGDTTDKNTTDDKSMDTKKKHKQKKVLEIDFFKTDDSFEDKVFASKGRTKIDMPIKNRKNDTHYLLPDDFHFSTDRITRLFIKPGQKMSLFSHRKHTRGDVSSGLFEKSTVSANHSNNDIPTIADEHFWADNYERKEQEEKEKEQSKEVGDVVGGALDNPFEDDMDGVDFNQAFEGTDDNEEASVKLDLQDDEDHKFPIRENKVTYSRVSKKVDVRRLKKNVWRSINNLIQEHDSRKNREQSSNDSETHTEDESTKELKFSDIIQGISKMYSDDTLKDISTSFCFICLLHLANEHGLQITHTENYNDLIVNYEDLATTQAAS
Take B3: the binding entry was “binds”.

B4: Ycg1-3xFLAG-9xHIS (protein, UniProt Q06680 1-1035)
chain: MQDPDGIDINTKIFNSVAEVFQKAQGSYAGHRKHIAVLKKIQSKAVEQGYEDAFNFWFDKLVTKILPLKKNEIIGDRIVKLVAAFIASLERELILAKKQNYKLTNDEEGIFSRFVDQFIRHVLRGVESPDKNVRFRVLQLLAVIMDNIGEIDESLFNLLILSLNKRIYDREPTVRIQAVFCLTKFQDEEQTEHLTELSDNEENFEATRTLVASIQNDPSAEVRRAAMLNLINDNNTRPYILERARDVNIVNRRLVYSRILKSMGRKCFDDIEPHIFDQLIEWGLEDRELSVRNACKRLIAHDWLNALDGDLIELLEKLDVSRSSVCVKAIEALFQSRPDILSKIKFPESIWKDFTVEIAFLFRAIYLYCLDNNITEMLEENFPEASKLSEHLNHYILLRYHHNDISNDSQSHFDYNTLEFIIEQLSIAAERYDYSDEVGRRSMLTVVRNMLALTTLSEPLIKIGIRVMKSLSINEKDFVTMAIEIINDIRDDDIEKQEQEEKIKSKKINRRNETSVDEEDENGTHNDEVNEDEEDDNISSFHSAVENLVQGNGNVSESDIINNLPPEKEASSATIVLCLTRSSYMLELVNTPLTENILIASLMDTLITPAVRNTAPNIRELGVKNLGLCCLLDVKLAIDNMYILGMCVSKGNASLKYIALQVIVDIFSVHGNTVVDGEGKVDSISLHKIFYKVLKNNGLPECQVIAAEGLCKLFLADVFTDDDLFETLVLSYFSPINSSNEALVQAFAFCIPVYCFSHPAHQQRMSRTAADILLRLCVLWDDLQSSVIPEVDREAMLKPNIIFQQLLFWTDPRNLVNQTGSTKKDTVQLTFLIDVLKIYAQIEKKEIKKMIITNINAIFLSSEQDYSTLKELLEYSDDIAENDNLDNVSKNALDKLRNNLNSLIEEINERSETQTKDENNTANDQYSSILGNSFNKSSNDTIEHAADITDGNNTELTKTTVNISAVDNTTEQSNSRKRTRSEAEQIDTSKNLENMSIQDTSTVAKNVSFVLPDEKSDAMSIDEEDKDSESFSEVC
Turning to B4, the binding entry is on record as “binds”.
